Results reported in paper PMC4102805.
No constants are given. Whether binding was seen depends on the method and setting. Binding seen in cells or lysates may run through a third protein. Some entries that bind do so weakly or less than the wild type.

Chains of the proteins cited; added tags and fusions are not shown. Residues count along the entry.
UniProt P26447: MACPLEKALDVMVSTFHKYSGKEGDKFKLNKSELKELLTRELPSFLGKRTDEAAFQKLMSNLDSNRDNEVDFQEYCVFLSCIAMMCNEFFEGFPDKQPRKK
UniProt Q15109, residues 23-404: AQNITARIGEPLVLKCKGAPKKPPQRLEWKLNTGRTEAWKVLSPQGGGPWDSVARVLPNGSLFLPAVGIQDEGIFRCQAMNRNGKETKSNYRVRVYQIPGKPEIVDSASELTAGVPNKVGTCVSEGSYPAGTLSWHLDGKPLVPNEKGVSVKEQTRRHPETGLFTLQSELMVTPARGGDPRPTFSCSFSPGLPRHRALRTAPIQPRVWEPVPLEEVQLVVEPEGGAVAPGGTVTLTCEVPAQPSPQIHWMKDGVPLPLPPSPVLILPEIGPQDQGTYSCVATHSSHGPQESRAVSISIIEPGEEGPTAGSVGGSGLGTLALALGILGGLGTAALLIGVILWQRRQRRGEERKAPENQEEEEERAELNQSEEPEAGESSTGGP

Columns and labels:
[1] = target: recombinant human S100A4 (human) (UniProt P26447); assay: condition: only with 25 µg RAGE H300 antibody (sc-5563) added to the lysate; pull-down; as a1, but 25 µg RAGE H300 antibody (sc-5563) added to the lysate prior to bead incubation; only the target purified
[2] = target: recombinant human S100A4 (human) (UniProt P26447); assay: pull-down; rS100A4 covalently coupled to Dynabeads, blocked with 2% BSA in PBS; incubated with RIPA lysate of 3 x 10^7 HCT116/RAGE cells overnight at 4°C; washed three times with PBS; Western blot for RAGE; only the target purified

binding [1]: no binding
binding [2]: binds
Substance: receptor for advanced glycation end products (RAGE), human full length (from UniProt Q15109 23-404)
